Source: patent US20180320217A1, “METHODS FOR SAMPLING AND MEASURING ORAL LAVAGE PROTEINS” (The Procter & Gamble Company, priority 2017, published 2018)

B1: SPB13_HUMAN (protein, UniProt Q9UIV8 1-391, looked up)
Serpin B13: MDSLGAVSTRLGFDLFKELKKTNDGNIFFSPVGILTAIGMVLLGTRGATASQLEEVFHSEKETKSSRIKAEEKEVIENTEAVHQQFQKFLTEISKLTNDYELNITNRLFGEKTYLFLQKYLDYVEKYYHASLEPVDFVNAADESRKKINSWVESKTNEKIKDLFPDGSISSSTKLVLVNMVYFKGQWDREFKKENTKEEKFWMNKSTSKSVQMMTQSHSFSFTFLEDLQAKILGIPYKNNDLSMFVLLPNDIDGLEKIIDKISPEKLVEWTSPGHMEERKVNLHLPRFEVEDGYDLEAVLAAMGMGDAFSEHKADYSGMSSGSGLYAQKFLHSSFVAVTEEGTEAAAATGIGFTVTSAPGHENVHCNHPFLFFIRHNESNSILFFGRFSSP
B2: SPB3_HUMAN (protein, UniProt P29508 1-390, looked up)
Serpin B3: MNSLSEANTKFMFDLFQQFRKSKENNIFYSPISITSALGMVLLGAKDNTAQQIKKVLHFDQVTENTTGKAATYHVDRSGNVHHQFQKLLTEFNKSTDAYELKIANKLFGEKTYLFLQEYLDAIKKFYQTSVESVDFANAPEESRKKINSWVESQTNEKIKNLIPEGNIGSNTTLVLVNAIYFKGQWEKKFNKEDTKEEKFWPNKNTYKSIQMMRQYTSFHFASLEDVQAKVLEIPYKGKDLSMIVLLPNEIDGLQKLEEKLTAEKLMEWTSLQNMRETRVDLHLPRFKVEESYDLKDTLRTMGMVDIFNGDADLSGMTGSRGLVLSGVLHKAFVEVTEEGAEAAAATAVVGFGSSPTSTNEEFHCNHPFLFFIRQNKTNSILFYGRFSSP
B3: SPB5_HUMAN (protein, UniProt P36952 1-375, looked up)
Serpin B5: MDALQLANSAFAVDLFKQLCEKEPLGNVLFSPICLSTSLSLAQVGAKGDTANEIGQVLHFENVKDVPFGFQTVTSDVNKLSSFYSLKLIKRLYVDKSLNLSTEFISSTKRPYAKELETVDFKDKLEETKGQINNSIKDLTDGHFENILADNSVNDQTKILVVNAAYFVGKWMKKFSESETKECPFRVNKTDTKPVQMMNMEATFCMGNIDSINCKIIELPFQNKHLSMFILLPKDVEDESTGLEKIEKQLNSESLSQWTNPSTMANAKVKLSIPKFKVEKMIDPKACLENLGLKHIFSEDTSDFSGMSETKGVALSNVIHKVCLEITEDGGDSIEVPGARILQHKDELNADHPFIYIIRHNKTRNIIFFGKFCSP
B4: SSBP_HUMAN (protein, UniProt Q04837 17-148, looked up)
Single-stranded DNA-binding …: ESETTTSLVLERSLNRVHLLGRVGQDPVLRQVEGKNPVTIFSLATNEMWRSGDSEVYQLGDVSQKTTWHRISVFRPGLRDVAYQYVKKGSRIYLEGKIDYGEYMDKNNVRRQATTIIADNIIFLSDQTKEKE
B5: SPRR3_HUMAN (protein, UniProt Q9UBC9 2-169, looked up)
Small proline-rich protein 3: SSYQQKQTFTPPPQLQQQQVKQPSQPPPQEIFVPTTKEPCHSKVPQPGNTKIPEPGCTKVPEPGCTKVPEPGCTKVPEPGCTKVPEPGCTKVPEPGCTKVPEPGYTKVPEPGSIKVPDQGFIKFPEPGAIKVPEQGYTKVPVPGYTKLPEPCPSTVTPGPAQQKTKQK
B6: SBSN_HUMAN (protein, UniProt Q6UWP8 26-590, looked up)
Suprabasin: DDPIEKVIEGINRGLSNAEREVGKALDGINSGITHAGREVEKVFNGLSNMGSHTGKELDKGVQGLNHGMDKVAHEINHGIGQAGKEAEKLGHGVNNAAGQVGKEADKLIHHGVHHGANQAGSEAGKFGQGVDNAAGQAGNEAGRFGQGVHHAAGQAGNEAGRFGQGVHHAAGQAGNEAGRFGQGAHHGLSEGWKETEKFGQGIHHAAGQVGKEAEKFGQGAHHAAGQAGNEAGRFGQGVHHGLSEGWKETEKFGQGVHHTAGQVGKEAEKFGQGAHHAAGQAGNEAGRFGQGAHHAAGQAGNEAGRFGQGVHHGLSEGWKETEKFGQGVHHAASQFGKETEKLGHGVHHGVNEAWKEAEKFGQGVHHAASQVGKEEDRVVQGLHHGVSQAGREAGQFGHDIHHTAGQAGKEGDIAVHGVQPGVHEAGKEAGQFGQGVHHTLEQAGKEADKAVQGFHTGVHQAGKEAEKLGQGVNHAADQAGKEVEKLGQGAHHAAGQAGKELQNAHNGVNQASKEANQLLNGNHQSGSSSHQGGATTTPLASGASVNTPFINLPALWRSVANIMP
B7: THIO_HUMAN (protein, UniProt P10599 2-105, looked up)
Thioredoxin: VKQIESKTAFQEALDAAGDKLVVVDFSATWCGPCKMIKPFFHSLSEKYSNVIFLEVDVDDCQDVASECEVKCMPTFQFFKKGQKVGEFSGANKEKLEATINELV
B8: TYPH_HUMAN (protein, UniProt P19971 11-482, looked up)
Thymidine phosphorylase: APPAPGDFSGEGSQGLPDPSPEPKQLPELIRMKRDGGRLSEADIRGFVAAVVNGSAQGAQIGAMLMAIRLRGMDLEETSVLTQALAQSGQQLEWPEAWRQQLVDKHSTGGVGDKVSLVLAPALAACGCKVPMISGRGLGHTGGTLDKLESIPGFNVIQSPEQMQVLLDQAGCCIVGQSEQLVPADGILYAARDVTATVDSLPLITASILSKKLVEGLSALVVDVKFGGAAVFPNQEQARELAKTLVGVGASLGLRVAAALTAMDKPLGRCVGHALEVEEALLCMDGAGPPDLRDLVTTLGGALLWLSGHAGTQAQGAARVAAALDDGSALGRFERMLAAQGVDPGLARALCSGSPAERRQLLPRAREQEELLAPADGTVELVRALPLALVLHELGAGRSRAGEPLRLGVGAELLVDVGQRLRRGTPWLRVHRDGPALSGPQSRALQEALVLSDRAPFAAPSPFAELVLPPQQ
B9: TALDO_HUMAN (protein, UniProt P37837 1-337, looked up)
Transaldolase: MSSSPVKRQRMESALDQLKQFTTVVADTGDFHAIDEYKPQDATTNPSLILAAAQMPAYQELVEEAIAYGRKLGGSQEDQIKNAIDKLFVLFGAEILKKIPGRVSTEVDARLSFDKDAMVARARRLIELYKEAGISKDRILIKLSSTWEGIQAGKELEEQHGIHCNMTLLFSFAQAVACAEAGVTLISPFVGRILDWHVANTDKKSYEPLEDPGVKSVTKIYNYYKKFSYKTIVMGASFRNTGEIKALAGCDFLTISPKLLGELLQDNAKLVPVLSAKAAQASDLEKIHLDEKSFRWLHNEDQMAVEKLSDGIRKFAADAVKLERMLTERMFNAENGK
B10: ZN185_HUMAN (protein, UniProt O15231 1-689, looked up)
Zinc finger protein 185: MSISALGGRTKGKPLPPGEEERNNVLKQMKVRTTLKGDKSWITKQDESEGRTIELPSGRSRATSFSSAGEVPKPRPPSTRAPTGYIIRGVFTKPIDSSSQPQQQFPKANGTPKSAASLVRTANAGPPRPSSSGYKMTTEDYKKLAPYNIRRSSTSGDTEEEEEEEVVPFSSDEQKRRSEAASGVLRRTAPREHSYVLSAAKKSTGPTQETQAPFIAKRVEVVEEDGPSEKSQDPPALARSTPGSNSADGGRTKASRAIWIECLPSMPSPAGSQELSSRGEEIVRLQILTPRAGLRLVAPDVEGMRSSPGNKDKEAPCSRELQRDLAGEEAFRAPNTDAARSSAQLSDGNVGSGATGSRPEGLAAVDIGSERGSSSATSVSAVPADRKSNSTAAQEDAKADPKGALADYEGKDVATRVGEAWQERPGAPRGGQGDPAVPAQQPADPSTPERQSSPSGSEQLVRRESCGSSVLTDFEGKDVATKVGEAWQDRPGAPRGGQGDPAVPTQQPADPSTPEQQNSPSGSEQFVRRESCTSRVRSPSSCMVTVTVTATSEQPHIYIPAPASELDSSSTTKGILFVKEYVNASEVSSGKPVSARYSNVSSIEDSFAMEKKPPCGSTPYSERTTGGICTYCNREIRDCPKITLEHLGICCHEYCFKCGICSKPMGDLLDQIFIHRDTIHCGKCYEKLF
B11: ADSV_HUMAN (protein, UniProt Q9Y6U3 1-715, looked up)
Scinderin: MARELYHEEFARAGKQAGLQVWRIEKLELVPVPQSAHGDFYVGDAYLVLHTAKTSRGFTYHLHFWLGKECSQDESTAAAIFTVQMDDYLGGKPVQNRELQGYESNDFVSYFKGGLKYKAGGVASGLNHVLTNDLTAKRLLHVKGRRVVRATEVPLSWDSFNKGDCFIIDLGTEIYQWCGSSCNKYERLKANQVATGIRYNERKGRSELIVVEEGSEPSELIKVLGEKPELPDGGDDDDIIADISNRKMAKLYMVSDASGSMRVTVVAEENPFSMAMLLSEECFILDHGAAKQIFVWKGKDANPQERKAAMKTAEEFLQQMNYSKNTQIQVLPEGGETPIFKQFFKDWRDKDQSDGFGKVYVTEKVAQIKQIPFDASKLHSSPQMAAQHNMVDDGSGKVEIWRVENNGRIQVDQNSYGEFYGGDCYIILYTYPRGQIIYTWQGANATRDELTTSAFLTVQLDRSLGGQAVQIRVSQGKEPVHLLSLFKDKPLIIYKNGTSKKGGQAPAPPTRLFQVRRNLASITRIVEVDVDANSLNSNDVFVLKLPQNSGYIWVGKGASQEEEKGAEYVASVLKCKTLRIQEGEEPEEFWNSLGGKKDYQTSPLLETQAEDHPPRLYGCSNKTGRFVIEEIPGEFTQDDLAEDDVMLLDAWEQIFIWIGKDANEVEKKESLKSAKMYLETDPSGRDKRTPIVIIKQGHEPPTFTGWFLGWDSSKW

Tested on: peptides in gingival brush samples
Test: Protein and peptide profiling of gingival brush samples (LC-MS/MS), TABLE 23
Format: in vivo, human
Conditions: for Mean CntlBsl (peptide abundance) / Mean CntlWk3 (peptide abundance) / Mean TrtBsl (peptide abundance) / Mean TrtWk3 (peptide abundance): pooled gingival brush samples, LC-MS/MS

Molecule	Mean CntlBsl (peptide abundance) (control regimen, baseline)	Mean CntlWk3 (peptide abundance) (control regimen, week 3)	Mean TrtBsl (peptide abundance) (treatment regimen, baseline)	Mean TrtWk3 (peptide abundance) (treatment regimen, week 3)	Mean Cntl Bsl (peptide abundance, gingival brush samples, control regimen, baseline)	Mean Cntl Wk3 (peptide abundance, gingival brush samples, control regimen, week 3)	Mean TrtBsl (peptide abundance, gingival brush samples, treatment regimen, baseline)	Mean TrtWk3 (peptide abundance, gingival brush samples, treatment regimen, week 3)
B1	671.5	1401.6	528.9	1816.3				
B2	16544.0	25073.8	12335.0	31865.2				
B3	14492.1	21720.3	18881.3	33124.8				
B4	7882.5	10686.9	5558.2	10917.0				
B5	167604.6	348856.5	212243.1	394037.6				
B6	57228.2	65066.6	62030.8	82870.1				
B7	221041.9	341085.6	257150.7	394704.2				
B8	1774.9	3512.2	1282.9	3282.4				
B9	18752.3	25742.5	19378.8	28463.8				
B10	4594.2	6167.6	1304.0	2653.4				
B11					3094.1	4306.6	2147.3	5044.2
